Reference: PubChem BioAssay AID1259424 (University of Nebraska Medical Center, 2018)
Test: 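Rank knockdowns across the genome by resemblance to the KSR1 depletion profile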 (primary screen). System: human HCT116 colon cancer cells. Reagent: siRNA pool against human genes, 50 nM. Read-out: 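Six signature mRNAs by branched-DNA multiplex assay, scaled to two housekeeping genes and non-targeting median, log2; matched to mean KSR1 knockdown profile by Pearson correlation and euclidean distance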. Direction: mean correlation with KSR1 profile and KSR1 correlation: higher = expression change more like KSR1 knockdown; mean distance from KSR1 profile: higher = expression change less like KSR1 knockdown.
Shown is a random part of about 14,000 reagents tested. 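Higher correlation or smaller distance means closer resemblance to KSR1 loss; control wells, including KSR1 knockdowns, recur on many plates.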 Reagents against one gene are numbered here. The record does not give: the time to read-out.

The opening 4 entries, to show the layout:
target gene,reagent,mean correlation with KSR1 profile,mean distance from KSR1 profile,"KSR1 correlation, replicate 1","KSR1 correlation, replicate 2","KSR1 correlation, replicate 3"
CFAP68,1,-0.342,4.22,0.288,0.0357,-0.244
TTLL7,1,0.35,1.36,0.323,0.72,0.0605
PCNX1,1,-0.187,2.28,0.0115,-0.389,-0.146
TNFSF8,1,-0.462,2.21,-0.221,-0.755,-0.508

Main list, repeating the preview:
target gene,reagent,mean correlation with KSR1 profile,mean distance from KSR1 profile,"KSR1 correlation, replicate 1","KSR1 correlation, replicate 2","KSR1 correlation, replicate 3"
CFAP68,1,-0.342,4.22,0.288,0.0357,-0.244
TTLL7,1,0.35,1.36,0.323,0.72,0.0605
PCNX1,1,-0.187,2.28,0.0115,-0.389,-0.146
TNFSF8,1,-0.462,2.21,-0.221,-0.755,-0.508
GFOD3P,1,-0.698,4.4,0.988,-0.524,0.361
INGX,1,-0.499,2.91,-0.507,-0.551,-0.532
SNAPC5,1,-0.308,1.19,-0.485,-0.172,-0.239
CCL5,1,0.202,1.52,0.273,0.151,0.125
BTG2,1,-0.114,2.05,-0.111,0.275,-0.383
CPAMD8,1,0.0242,3.63,0.00914,-0.194,-0.166
KIR2DL4,1,0.258,1.23,0.0588,0.0374,0.437
PIN4,1,0.0509,1.55,0.116,0.418,-0.0958
LGSN,1,0.0764,2.47,0.173,-0.0651,0.0496
TESC,1,-0.326,3.07,-0.135,-0.418,-0.452
CPA5,1,-0.551,1.94,-0.424,0.127,-0.414
PRR4,1,0.302,0.894,0.354,0.304,0.156
AANAT,1,0.594,2.24,0.385,-0.176,0.91
IPMK,1,-0.0235,3.68,0.343,0.104,-0.353
SPANXB1,1,0.536,2.12,0.273,0.512,0.761
SPANXB1,2,0.489,1.8,0.247,0.442,0.692
C10orf95,1,0.153,2.11,0.138,0.324,0.0825
EFNA5,1,-0.049,1.91,0.0135,-0.00878,-0.188
ARHGAP35,1,0.501,1.44,0.438,0.842,0.344
UCP3,1,-0.581,3.79,-0.681,-0.578,-0.574
DYSF,1,-0.367,2.45,-0.24,-0.348,-0.499
DSG2,1,-0.0706,1.97,-0.0303,-0.225,0.0344
HHIPL1,1,0.432,4.65,0.37,0.511,0.288
RAB33A,1,0.226,1.41,0.056,-0.0125,0.378
HIP1,1,0.0772,2.6,0.104,-0.121,0.119
TFDP2,1,0.328,1.83,0.419,0.37,0.273
UCHL1,1,-0.0162,1.39,-0.0321,-0.095,-0.0203
GTF2H1,1,0.359,3.21,0.367,0.0551,0.341
LMAN1,1,0.245,1.99,0.309,0.27,0.129
HCRTR1,1,0.162,2.33,-0.143,0.316,0.0735
CCDC6,1,-0.0222,3.42,-0.0123,0.163,-0.197
PMS2P1,1,0.357,2.82,0.396,0.483,0.193
THOC6,1,0.0155,2.92,0.0867,-0.137,0.136
TARDBP,1,0.169,1.58,0.521,0.626,-0.0757
POLR3K,1,0.298,2.26,-0.0733,0.567,0.223
KCNS2,1,-0.383,2.3,-0.236,-0.287,-0.438
KCNJ6,1,0.507,1.8,0.471,0.523,0.366
NUPR1,1,0.778,3.79,0.657,0.712,0.682
OXSM,1,-0.59,1.51,-0.421,-0.554,-0.82
AIF1L,1,0.561,2.71,0.487,0.552,0.7
C19orf33,1,0.547,1.19,0.211,0.463,0.599
MALL,1,0.0948,1.11,-0.082,0.0444,0.328
KCNH3,1,0.299,2.26,0.521,0.148,0.0512
SHARPIN,1,0.32,2.41,-0.178,0.152,0.422
TAB2,1,0.149,1.09,-0.261,0.336,0.283
TGFBRAP1,1,-0.219,1.75,-0.155,-0.233,-0.316
